The text below walks through data of the supplement of paper PMC11546906.

This is one part of the list. Repeats in this data set agree poorly, so a single value says little.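 FDA-approved drugs were each paired with colistin at one-eighth its MIC and screened against a multidrug-resistant, mcr-1-positive clinical E. coli isolate, with OD600 read after 24 h. Drug-free bacteria served as growth control, plain broth as blank. Combinations were active if OD600 dropped below 0.2.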

For this experiment, the system named is Escherichia coli 42 (mcr-1-positive clinical isolate). The experiment is described as follows: OD600 after 24 h growth with compound plus colistin (absorbance units (OD600)); higher = more bacterial growth (less inhibition). The conditions noted are these: first compound 25 µM; colistin concentration 0.5 ug/mL; incubation time 24 h; 37 °C.
On to `C=C[C@]1(C)C[C@@H](OC(=O)CS[C@@H]2CC[C@@H](N)C[C@H]2O)[C@]2(C)[C@H](C)CC[C@]3(CCC(=O)[C@H]32)[C@@H](C)[C@@H]1O` [Lefamulin acetate] + CCC(C)CCCC(=O)N[C@@H](CCN)C(=O)N[C@H](C(=O)N[C@@H](CCN)C(=O)N[C@H]1CCNC(=O)[C@H]([C@@H](C)O)NC(=O)[C@H](CCN)NC(=O)[C@H](CCN)NC(=O)[C@H](CC(C)C)NC(=O)[C@@H](CC(C)C)NC(=O)[C@H](CCN)NC1=O)[C@@H](C)O [colistin], for which the OD600 was active: 0.043. Consider `NS(=O)(=O)Cc1noc2ccccc12` [Zonisamide] + CCC(C)CCCC(=O)N[C@@H](CCN)C(=O)N[C@H](C(=O)N[C@@H](CCN)C(=O)N[C@H]1CCNC(=O)[C@H]([C@@H](C)O)NC(=O)[C@H](CCN)NC(=O)[C@H](CCN)NC(=O)[C@H](CC(C)C)NC(=O)[C@@H](CC(C)C)NC(=O)[C@H](CCN)NC1=O)[C@@H](C)O [colistin], for which the OD600 is inactive: 1.15. In the case of `NC(=N\CCCCCC/N=C(N)/N=C(\N)Nc1ccc(Cl)cc1)/N=C(\N)Nc1ccc(Cl)cc1` [Chlorhexidine diacetate] + CCC(C)CCCC(=O)N[C@@H](CCN)C(=O)N[C@H](C(=O)N[C@@H](CCN)C(=O)N[C@H]1CCNC(=O)[C@H]([C@@H](C)O)NC(=O)[C@H](CCN)NC(=O)[C@H](CCN)NC(=O)[C@H](CC(C)C)NC(=O)[C@@H](CC(C)C)NC(=O)[C@H](CCN)NC1=O)[C@@H](C)O [colistin] it was active: 0.036; in that of `CCOC(=O)O[C@]1(C(=O)OCCl)CC[C@H]2[C@@H]3CCC4=CC(=O)C=C[C@]4(C)[C@H]3[C@@H](O)C[C@@]21C` [Loteprednol etabonate] + CCC(C)CCCC(=O)N[C@@H](CCN)C(=O)N[C@H](C(=O)N[C@@H](CCN)C(=O)N[C@H]1CCNC(=O)[C@H]([C@@H](C)O)NC(=O)[C@H](CCN)NC(=O)[C@H](CCN)NC(=O)[C@H](CC(C)C)NC(=O)[C@@H](CC(C)C)NC(=O)[C@H](CCN)NC1=O)[C@@H](C)O [colistin], inactive: 1.01.
